In PMC11720309, “Transcriptional regulation of miR528-PPO module by miR156 targeted SPLs orchestrates chilling response in banana”:
Construct, isoform or probe ends are uncertain for at least one entry. For some of these results: No signal at the amounts used counts as a negative.

Experiments:
MaSPL25 [1] = assay: competition with a labelled probe; conditions: unlabeled competitor vs biotin-N1 (EMSA); Chemiluminescent EMSA Kit (Thermo Fisher); pH and temperature not stated; recombinant protein; protein details: GST (N-terminal, pGEX-4T-3); label: none (biotin-free mutant competitor)
MaSPL42 [2] = assay: competition with a labelled probe; conditions: unlabeled competitor vs biotin-N1 (EMSA); Chemiluminescent EMSA Kit (Thermo Fisher); pH and temperature not stated; recombinant protein; protein details: GST (N-terminal, pGEX-4T-3); label: none (biotin-free mutant competitor)
MaSPL25 [3] = assay: EMSA; conditions: Chemiluminescent EMSA Kit (Thermo Fisher); pH and temperature not stated; recombinant protein; protein details: GST (N-terminal, pGEX-4T-3)
MaSPL42 [4] = assay: EMSA; conditions: Chemiluminescent EMSA Kit (Thermo Fisher); pH and temperature not stated; recombinant protein; protein details: GST (N-terminal, pGEX-4T-3)

Sequence | binding result (MaSPL25 [1]) | binding result (MaSPL42 [2]) | binding result (MaSPL25 [3]) | binding result (MaSPL42 [4])
GCGCAAAAAAGTGCAAAAATAAGATACTACACAAACCACACAATAGAAAAAACACTATC (double strand) [MamiR528pro-mut-probe] | no binding | no binding |  | 
GCGCAGTACAGTGCAGTACTAAGATACTACACAAACCACACAATAGAAGTACCACTATC (double strand) [MamiR528pro-probe] |  |  | binds | binds
